Test results: the kinase profiling compilation of Christmann-Franck et al. (2016)

Protein sequences, listed by entry. Tags and fused reporters are not part of them. Lines headed by an entry give the natural chain unless they say otherwise; changes in a name come on top.
UniProt P31751: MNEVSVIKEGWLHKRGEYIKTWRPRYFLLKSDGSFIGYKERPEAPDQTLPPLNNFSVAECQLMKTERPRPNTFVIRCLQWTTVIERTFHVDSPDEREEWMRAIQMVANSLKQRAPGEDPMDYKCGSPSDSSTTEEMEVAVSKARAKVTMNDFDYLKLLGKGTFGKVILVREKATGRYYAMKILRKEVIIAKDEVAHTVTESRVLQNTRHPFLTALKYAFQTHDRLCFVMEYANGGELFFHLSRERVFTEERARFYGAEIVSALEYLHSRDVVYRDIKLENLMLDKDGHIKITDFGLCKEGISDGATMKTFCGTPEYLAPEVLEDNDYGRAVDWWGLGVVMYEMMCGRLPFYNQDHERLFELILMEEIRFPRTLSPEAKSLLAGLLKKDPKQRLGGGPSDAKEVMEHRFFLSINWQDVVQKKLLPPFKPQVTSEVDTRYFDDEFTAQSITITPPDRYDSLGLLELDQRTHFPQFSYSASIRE
UniProt O14965: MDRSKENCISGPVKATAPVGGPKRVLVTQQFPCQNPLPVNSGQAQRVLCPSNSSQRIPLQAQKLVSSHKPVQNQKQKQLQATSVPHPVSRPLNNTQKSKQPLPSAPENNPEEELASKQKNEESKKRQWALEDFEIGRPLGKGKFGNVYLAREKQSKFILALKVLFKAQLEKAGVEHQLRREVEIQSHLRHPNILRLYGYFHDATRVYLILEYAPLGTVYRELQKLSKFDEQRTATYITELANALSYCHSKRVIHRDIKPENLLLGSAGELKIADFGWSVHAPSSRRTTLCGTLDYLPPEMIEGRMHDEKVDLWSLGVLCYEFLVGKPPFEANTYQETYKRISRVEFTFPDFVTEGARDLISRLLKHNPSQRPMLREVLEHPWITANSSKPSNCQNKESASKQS
UniProt Q96GD4, whole entry, looked up: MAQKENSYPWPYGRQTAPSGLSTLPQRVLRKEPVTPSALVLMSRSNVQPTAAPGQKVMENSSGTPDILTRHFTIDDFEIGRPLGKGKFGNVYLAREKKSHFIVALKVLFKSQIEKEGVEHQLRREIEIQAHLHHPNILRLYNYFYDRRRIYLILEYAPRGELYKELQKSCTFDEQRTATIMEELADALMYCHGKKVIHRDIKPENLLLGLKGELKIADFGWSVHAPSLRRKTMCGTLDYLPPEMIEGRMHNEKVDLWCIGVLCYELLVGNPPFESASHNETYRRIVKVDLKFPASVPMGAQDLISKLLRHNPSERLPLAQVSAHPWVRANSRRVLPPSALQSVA
UniProt Q09013: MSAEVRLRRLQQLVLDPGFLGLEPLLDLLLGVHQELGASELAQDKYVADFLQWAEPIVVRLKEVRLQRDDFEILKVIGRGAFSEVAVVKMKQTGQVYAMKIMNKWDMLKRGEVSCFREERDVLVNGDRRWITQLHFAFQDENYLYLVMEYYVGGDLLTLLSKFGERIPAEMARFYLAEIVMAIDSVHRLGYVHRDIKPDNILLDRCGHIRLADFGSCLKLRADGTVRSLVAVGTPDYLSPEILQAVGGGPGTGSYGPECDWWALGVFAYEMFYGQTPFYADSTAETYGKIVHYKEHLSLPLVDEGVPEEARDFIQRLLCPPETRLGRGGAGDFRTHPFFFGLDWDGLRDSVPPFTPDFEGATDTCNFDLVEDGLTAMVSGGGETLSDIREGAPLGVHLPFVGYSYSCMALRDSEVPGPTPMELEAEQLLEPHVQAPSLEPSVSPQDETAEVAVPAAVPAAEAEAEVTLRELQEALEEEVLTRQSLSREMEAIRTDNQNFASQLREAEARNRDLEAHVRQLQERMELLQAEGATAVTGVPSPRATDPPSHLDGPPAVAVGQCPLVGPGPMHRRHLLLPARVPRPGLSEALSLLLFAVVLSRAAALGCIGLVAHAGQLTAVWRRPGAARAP
UniProt Q05655: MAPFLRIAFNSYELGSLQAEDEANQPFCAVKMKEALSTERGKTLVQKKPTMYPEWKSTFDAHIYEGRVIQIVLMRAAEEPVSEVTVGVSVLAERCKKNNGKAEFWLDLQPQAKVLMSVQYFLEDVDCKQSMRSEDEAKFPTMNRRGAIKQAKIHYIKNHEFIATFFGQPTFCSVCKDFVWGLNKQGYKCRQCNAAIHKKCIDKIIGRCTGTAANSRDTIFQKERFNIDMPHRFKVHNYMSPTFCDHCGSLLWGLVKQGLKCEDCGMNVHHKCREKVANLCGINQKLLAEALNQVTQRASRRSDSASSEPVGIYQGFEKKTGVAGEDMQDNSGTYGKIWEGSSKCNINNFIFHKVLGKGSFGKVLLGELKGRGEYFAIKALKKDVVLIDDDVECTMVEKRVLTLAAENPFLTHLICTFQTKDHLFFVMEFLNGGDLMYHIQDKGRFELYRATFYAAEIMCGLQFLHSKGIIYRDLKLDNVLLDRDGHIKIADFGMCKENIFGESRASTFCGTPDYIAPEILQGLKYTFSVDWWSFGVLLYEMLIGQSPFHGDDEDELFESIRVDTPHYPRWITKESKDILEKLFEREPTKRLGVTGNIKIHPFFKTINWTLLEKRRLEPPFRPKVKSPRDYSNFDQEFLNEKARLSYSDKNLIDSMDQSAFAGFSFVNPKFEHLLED
UniProt P24723, whole entry, looked up: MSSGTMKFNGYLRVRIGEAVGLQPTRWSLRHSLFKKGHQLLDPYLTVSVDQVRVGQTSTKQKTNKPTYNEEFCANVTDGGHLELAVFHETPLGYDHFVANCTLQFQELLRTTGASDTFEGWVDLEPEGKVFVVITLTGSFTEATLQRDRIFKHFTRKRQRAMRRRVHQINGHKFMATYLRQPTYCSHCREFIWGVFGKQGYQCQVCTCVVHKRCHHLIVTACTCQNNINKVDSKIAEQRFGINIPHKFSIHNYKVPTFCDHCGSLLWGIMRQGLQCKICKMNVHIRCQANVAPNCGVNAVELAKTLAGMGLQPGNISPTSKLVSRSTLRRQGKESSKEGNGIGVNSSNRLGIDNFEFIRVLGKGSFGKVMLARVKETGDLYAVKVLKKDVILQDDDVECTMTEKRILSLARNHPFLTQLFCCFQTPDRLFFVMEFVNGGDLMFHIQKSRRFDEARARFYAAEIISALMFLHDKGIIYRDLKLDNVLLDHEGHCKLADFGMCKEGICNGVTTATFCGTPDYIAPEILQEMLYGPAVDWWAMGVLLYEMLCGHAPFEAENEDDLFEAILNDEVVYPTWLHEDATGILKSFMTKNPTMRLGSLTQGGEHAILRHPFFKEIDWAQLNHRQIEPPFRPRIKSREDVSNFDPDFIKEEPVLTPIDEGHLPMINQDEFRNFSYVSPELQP
UniProt P41743, whole entry, looked up: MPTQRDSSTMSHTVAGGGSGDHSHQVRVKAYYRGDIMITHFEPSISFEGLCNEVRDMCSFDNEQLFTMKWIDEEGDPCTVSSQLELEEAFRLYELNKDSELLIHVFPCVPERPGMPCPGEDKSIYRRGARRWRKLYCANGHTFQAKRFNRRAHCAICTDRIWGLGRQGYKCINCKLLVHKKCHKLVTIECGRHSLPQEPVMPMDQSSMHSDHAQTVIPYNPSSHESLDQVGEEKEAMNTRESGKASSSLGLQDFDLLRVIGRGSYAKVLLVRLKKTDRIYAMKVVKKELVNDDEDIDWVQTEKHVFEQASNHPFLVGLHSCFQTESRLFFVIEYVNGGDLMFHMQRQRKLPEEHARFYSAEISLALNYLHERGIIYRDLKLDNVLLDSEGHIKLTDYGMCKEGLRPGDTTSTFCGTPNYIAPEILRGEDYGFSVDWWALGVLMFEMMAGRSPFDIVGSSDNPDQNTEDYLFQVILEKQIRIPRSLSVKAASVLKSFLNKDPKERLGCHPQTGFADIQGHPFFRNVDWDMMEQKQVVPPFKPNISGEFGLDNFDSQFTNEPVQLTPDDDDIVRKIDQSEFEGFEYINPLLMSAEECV
UniProt Q15418, whole entry, looked up: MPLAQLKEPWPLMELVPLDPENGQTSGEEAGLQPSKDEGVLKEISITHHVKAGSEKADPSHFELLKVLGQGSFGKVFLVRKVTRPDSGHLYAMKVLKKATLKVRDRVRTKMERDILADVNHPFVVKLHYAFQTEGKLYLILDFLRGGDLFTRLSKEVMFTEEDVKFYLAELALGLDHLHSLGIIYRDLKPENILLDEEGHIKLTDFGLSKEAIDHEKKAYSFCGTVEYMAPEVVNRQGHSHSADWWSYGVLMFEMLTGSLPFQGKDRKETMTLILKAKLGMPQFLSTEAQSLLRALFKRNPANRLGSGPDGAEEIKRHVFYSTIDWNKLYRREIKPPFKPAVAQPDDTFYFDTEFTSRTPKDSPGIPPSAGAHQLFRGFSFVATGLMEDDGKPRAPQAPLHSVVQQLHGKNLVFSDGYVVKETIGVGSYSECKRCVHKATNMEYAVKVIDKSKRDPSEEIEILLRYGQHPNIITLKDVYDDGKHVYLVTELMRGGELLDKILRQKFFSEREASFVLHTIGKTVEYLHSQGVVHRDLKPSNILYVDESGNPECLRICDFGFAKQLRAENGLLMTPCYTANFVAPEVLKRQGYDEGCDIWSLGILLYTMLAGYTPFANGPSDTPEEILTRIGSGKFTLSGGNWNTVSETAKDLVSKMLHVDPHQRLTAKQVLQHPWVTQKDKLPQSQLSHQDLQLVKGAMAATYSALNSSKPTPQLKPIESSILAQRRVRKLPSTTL
UniProt P51812, whole entry, looked up: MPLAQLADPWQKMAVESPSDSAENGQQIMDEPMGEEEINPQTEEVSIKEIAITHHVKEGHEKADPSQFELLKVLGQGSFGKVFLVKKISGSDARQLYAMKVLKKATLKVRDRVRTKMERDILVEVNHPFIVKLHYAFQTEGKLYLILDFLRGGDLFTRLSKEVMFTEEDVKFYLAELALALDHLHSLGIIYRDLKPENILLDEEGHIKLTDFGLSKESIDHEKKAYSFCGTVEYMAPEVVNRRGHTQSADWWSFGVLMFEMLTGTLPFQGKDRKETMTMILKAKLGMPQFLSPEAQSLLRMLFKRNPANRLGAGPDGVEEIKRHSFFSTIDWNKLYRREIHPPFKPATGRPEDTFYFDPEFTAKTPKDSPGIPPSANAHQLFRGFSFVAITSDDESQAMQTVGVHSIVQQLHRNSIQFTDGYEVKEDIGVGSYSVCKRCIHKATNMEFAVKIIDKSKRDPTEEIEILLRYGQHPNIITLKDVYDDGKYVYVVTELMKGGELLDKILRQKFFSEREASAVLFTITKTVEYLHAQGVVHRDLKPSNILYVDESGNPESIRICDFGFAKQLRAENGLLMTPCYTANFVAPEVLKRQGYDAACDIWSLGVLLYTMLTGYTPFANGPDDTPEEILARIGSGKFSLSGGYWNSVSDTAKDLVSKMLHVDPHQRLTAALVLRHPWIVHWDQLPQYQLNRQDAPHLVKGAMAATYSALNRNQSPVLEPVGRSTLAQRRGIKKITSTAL
UniProt Q9NY57, whole entry, looked up: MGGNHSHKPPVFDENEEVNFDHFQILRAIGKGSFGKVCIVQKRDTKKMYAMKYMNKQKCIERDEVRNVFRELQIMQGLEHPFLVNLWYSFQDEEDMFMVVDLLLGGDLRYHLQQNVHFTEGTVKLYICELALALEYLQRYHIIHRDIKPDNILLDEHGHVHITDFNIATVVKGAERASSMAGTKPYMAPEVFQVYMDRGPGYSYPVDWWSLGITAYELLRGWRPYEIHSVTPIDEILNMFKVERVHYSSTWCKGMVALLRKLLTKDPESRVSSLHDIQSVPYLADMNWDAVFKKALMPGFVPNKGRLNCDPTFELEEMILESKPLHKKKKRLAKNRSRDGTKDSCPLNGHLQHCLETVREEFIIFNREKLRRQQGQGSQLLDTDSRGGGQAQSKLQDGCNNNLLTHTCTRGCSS

Key:
Assay in all cases: split-luciferase competition binding
AKT1 (human) = AKT1 (human) (UniProt P31749); settings: compound 10.0 µM
AKT2 (human) = AKT2 (human) (UniProt P31751); settings: compound 10.0 µM
AKT3 (human) = AKT3 (human) (UniProt Q9Y243); settings: compound 10.0 µM
AURKA (human) = AURKA (human) (UniProt O14965); settings: compound 10.0 µM
AURKB (human) = AURKB (human) (UniProt Q96GD4); settings: compound 10.0 µM
AURKC (human) = AURKC (human) (UniProt Q9UQB9); settings: compound 10.0 µM
DMPK (human) = DMPK (human) (UniProt Q09013); settings: compound 10.0 µM
PDPK1 (human) = PDPK1 (human) (UniProt O15530); settings: compound 10.0 µM
PKN1 (human) = PKN1 (human) (UniProt Q16512); settings: compound 10.0 µM
PRKACA (mouse) = settings: compound 10.0 µM; accession and sequence are those of the human protein
PRKACB (human) = PRKACB (human) (UniProt P22694); settings: compound 10.0 µM
PRKCD (human) = PRKCD (human) (UniProt Q05655); settings: compound 10.0 µM
PRKCE (human) = PRKCE (human) (UniProt Q02156); settings: compound 10.0 µM
PRKCG (human) = PRKCG (human) (UniProt P05129); settings: compound 10.0 µM
PRKCH (human) = PRKCH (human) (UniProt P24723); settings: compound 10.0 µM
PRKCI (human) = PRKCI (human) (UniProt P41743); settings: compound 10.0 µM
PRKCQ (human) = PRKCQ (human) (UniProt Q04759); settings: compound 10.0 µM
PRKX (human) = PRKX (human) (UniProt P51817); settings: compound 10.0 µM
RPS6KA1 KD1 (human) = RPS6KA1 KD1 (human) (UniProt Q15418); settings: compound 10.0 µM
RPS6KA2 KD1 (human) = RPS6KA2 KD1 (human) (UniProt Q15349); settings: compound 10.0 µM
RPS6KA3 KD1 (human) = RPS6KA3 KD1 (human) (UniProt P51812); settings: compound 10.0 µM
RPS6KA4 KD1 (human) = RPS6KA4 KD1 (human) (UniProt O75676); settings: compound 10.0 µM
RPS6KA5 KD1 (human) = RPS6KA5 KD1 (human) (UniProt O75582); settings: compound 10.0 µM
RPS6KA6 KD1 (human) = RPS6KA6 KD1 (human) (UniProt Q9UK32); settings: compound 10.0 µM
SGK2 (human) = SGK2 (human) (UniProt Q9HBY8); settings: compound 10.0 µM
SGK3 (human) = SGK3 (human) (UniProt Q96BR1); settings: compound 10.0 µM
STK32B (human) = STK32B (human) (UniProt Q9NY57); settings: compound 10.0 µM

inhibition (AKT1 (human)): 0%
inhibition (AKT2 (human)): 0%
inhibition (AKT3 (human)): 0%
inhibition (AURKA (human)): 0%
inhibition (AURKB (human)): 34%
inhibition (AURKC (human)): 24%
inhibition (DMPK (human)): 15%
inhibition (PDPK1 (human)): 48%
inhibition (PKN1 (human)): 0%
inhibition (PRKACA (mouse)): 10%
inhibition (PRKACB (human)): 3%
inhibition (PRKCD (human)): 12%
inhibition (PRKCE (human)): 5%
inhibition (PRKCG (human)): 0%
inhibition (PRKCH (human)): 44%
inhibition (PRKCI (human)): 0%
inhibition (PRKCQ (human)): 42%
inhibition (PRKX (human)): 22%
inhibition (RPS6KA1 KD1 (human)): 49%
inhibition (RPS6KA2 KD1 (human)): 78%
inhibition (RPS6KA3 KD1 (human)): 28%
inhibition (RPS6KA4 KD1 (human)): 62%
inhibition (RPS6KA5 KD1 (human)): 45%
inhibition (RPS6KA6 KD1 (human)): 27%
inhibition (SGK2 (human)): 26%
inhibition (SGK3 (human)): 37%
inhibition (STK32B (human)): 0%
SMILES: O=C1NC(=O)c2c1c(-c1ccccc1)cc1[nH]c3ccc(O)cc3c21
